Results published in paper PMC12548414.
About 20 (1%) of roughly 1,600 compounds showed an effect of 50% or more. This is one part of the list.

The compounds below were run on T1, E. coli pLC1021 (luc-trpAt trans-translation reporter). Details: reporter signal, KKL-35 = 100%; rise means trans-translation inhibition; 2 h, 20 µM.
T1 construct: pLC1021 luc-trpAt reporter strain
Set-up: species or system Escherichia coli pLC1021; luc-trpAt non-stop luciferase reporter; luminescence rises when trans-translation is inhibited; normalized to KKL-35 and DMSO
How it was run: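 Luminescence (560 nm, 10 min after Bright-Glo) reports luciferase that escapes trans-translation tagging, measured after 2 h room-temperature treatment with 20 µM compound. Each plate was scaled between DMSO (negative) and 20 µM KKL-35 (positive) controls. Compounds scoring one standard deviation above the median counted as positive; at least two biological repeats.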

| SMILES | % activation |
| --- | --- |
| CC12CCC(C(=O)Nc3ccc(OC(F)(F)F)cc3)(CC1=O)C2(C)C (stereo not drawn) [KKL-0569] | 11% |
| CC(=NNC1=NC(=O)C(Cc2ccc(Cl)cc2)S1)c1ccc(F)cc1 (stereo not drawn) [KKL-1358] | 16% |
| CCOC(=O)COc1ccc2c(=O)c(-c3ccc(OC)c(OC)c3)c(C(=O)OCC)oc2c1 [KKL-0958] | 16% |
| COc1ccccc1CC(C)NC(=O)c1cnc(SC)nc1 (stereo not drawn) [KKL-0703] | 0% |
| COc1ccc(CNCc2cn(-c3cccc(F)c3)nc2-c2ccc(C)o2)cc1 [KKL-0321] | 0% |
| CSc1nc(-c2ccccc2)nc(C(Cl)Cl)n1 [KKL-1660] | 4% |
| COc1ccc2sc(Nc3nc(-c4ccccn4)cs3)nc2c1 [KKL-1681] | 0% |
| Cc1cc2cc(CN(Cc3cccnc3)C(=O)Nc3ccc(F)cc3)c(O)nc2cc1C [KKL-1347] | 0% |
| COC(=O)[C@@H]1Cc2c([nH]c3ccccc23)[C@H]2C[C@@H](NCCN(C)C)C[C@@H](c3ccc(C(C)C)cc3)N21 [KKL-0551] | 0% |
| CSc1ncc(C(=O)Nc2nc(-c3c[nH]c4cc(C)ccc34)cs2)cn1 [KKL-0474] | 0% |
| CCCCOC(=O)CSc1nc(N)c(C#N)c(-c2ccc(OC)cc2)c1C#N [KKL-0380] | 3% |
| COc1ccc(NC(=O)Cn2nnc(-c3ccc(OCC(C)C)cc3)n2)c(OC)c1 [KKL-1208] | 5% |
| O=C(Oc1cccc2cccnc12)C(Cc1ccccc1)N1C(=O)C2C3CCC(C3)C2C1=O (stereo not drawn) [KKL-1364] | 9% |
| Cc1c(CN2CCC3(CC2)NC(=O)c2ccccc2O3)[nH]c2ccc(F)cc12 [KKL-0440] | 0% |
| COc1cccc(-c2ccccc2NC(=O)C2CCN(Cc3ccc4ccccc4c3)CC2)c1 [KKL-1168] | 0% |
| COc1ccc(C(=O)C(CN2CCOCC2)c2ccccc2)cc1 (stereo not drawn) [KKL-0352] | 0% |
| CC(=O)NC(=S)NNC(=O)c1ccc(C(C)(C)C)cc1 [KKL-0588] | 143% |
| Cc1oc(C(=O)Nc2ncc(Cc3ccccc3F)s2)cc1CN1CCOCC1 [KKL-0938] | 0% |
| COc1ccc(Nc2ccccc2N)cc1 [KKL-0833] | 0% |
| Oc1nc(-c2ccccn2)nc2sc(-c3ccccc3)cc12 [KKL-0817] | 20% |
| COc1cc(NC(=O)c2cc3ccccc3o2)ccc1NC(=O)c1ccccc1Cl [KKL-1466] | 0% |

Single entries from the results shown:
Under % activation, CSc1nc(-c2ccccc2)nc(C(Cl)Cl)n1 [KKL-1660] has the entry 4%
Under % activation, CSc1ncc(C(=O)Nc2nc(-c3c[nH]c4cc(C)ccc34)cs2)cn1 [KKL-0474] has the entry 0%
Under % activation, Cc1oc(C(=O)Nc2ncc(Cc3ccccc3F)s2)cc1CN1CCOCC1 [KKL-0938] has the entry 0%
Under % activation, Oc1nc(-c2ccccn2)nc2sc(-c3ccccc3)cc12 [KKL-0817] has the entry 20%
Under % activation, CCCCOC(=O)CSc1nc(N)c(C#N)c(-c2ccc(OC)cc2)c1C#N [KKL-0380] has the entry 3%

Later entries:

| SMILES | % activation |
| --- | --- |
| Cc1cc(=O)oc2cc(OCC(=O)OC3CCCCC3)ccc12 [KKL-1250] | 7% |
| CCCCc1cccc(C(=O)Nc2nnc(S(=O)(=O)CCCC)s2)n1 [KKL-1853] | 6% |
| N#Cc1cccc(-c2ccc(NCC3CCC(CN(C(=O)O)c4cccnn4)CC3)nc2)c1 (stereo not drawn) [KKL-1855] | 0% |
| O=C(Nc1ccccc1Br)c1ccc([N+](=O)[O-])o1 [KKL-0424] | 0% |
| CCc1c(C)nc(-n2nc(C)cc2NC(=O)c2ccccc2SC)[nH]c1=O [KKL-1708] | 2% |
| CCCCCCc1cc2cc(C(=O)NC)c(=N)oc2cc1O [KKL-1013] | 12% |
| Cc1ccc2nc(C)c(C(=O)NCC(C)C)n2c1 [KKL-1757] | 3% |
| Cc1ccc(C(=O)NC[C@H]2C[C@@H]3CCN2C[C@@H]3c2cc(-c3ccc4ccccc4c3)nn2C)cc1 [KKL-0337] | 0% |
| Cc1ccccc1N1CCN(C2CCCN(C(=O)c3ccc4c(c3)no[n+]4[O-])C2)CC1 (stereo not drawn) [KKL-0625] | 2% |
| O=[N+]([O-])c1ccc(NCCNc2nc3ccccc3nc2N2CCOCC2)cc1 [KKL-0399] | 9% |
| CN1CCN(c2cc(-c3ccncc3)nc(-c3ccccc3)n2)CC1 [KKL-1795] | 237% |
| Cc1cc(C)c(C(=O)/C=C/c2cccc([N+](=O)[O-])c2)cc1C [KKL-0409] | 0% |
| NC(CC(=O)c1ccc(Cl)cc1Cl)C(Cl)(Cl)Cl (stereo not drawn) [KKL-0766] | 0% |
| COc1cccc(C(=O)Nc2nc(-c3ccccc3)c(-c3ccccc3)o2)c1 [KKL-1006] | 9% |
| Cc1ccc2oc(SC(=O)Nc3nccs3)nc2n1 [KKL-1872] | 0% |
| NC1CCN(c2c(F)cc3c(=O)c(C(=O)O)cn(C4CC4)c3c2Cl)C1 (stereo not drawn) [KKL-1008] | 38% |
| CCCCc1ccc(C(=O)Nc2nccc3ccccc23)nc1 [KKL-1763] | 50% |
| CCCOc1ccccc1NC(=O)Nc1ccc(Cl)c(Cl)c1 [KKL-0411] | 2% |
| O=C(c1[nH]nc2c1CCCC2)N1CCN(Cc2ccc3c(c2)OCO3)CC1 [KKL-1704] | 0% |
| CCOC(=O)c1c(CSc2ccccc2)n(-c2ccccc2)c2ccc(O)c(CN(C)C)c12 [KKL-0298] | 0% |
| Cc1ccc(C(=O)CC(=O)c2cc(Cl)ccc2O)cc1 [KKL-0456] | 0% |

| SMILES | % activation |
| --- | --- |
| Cc1cc(C)c(-n2cccn2)c(CN(CCCn2ccnc2)Cc2ccc(F)cc2)c1 [KKL-1032] | 8% |
| CCc1ccc(CCC(=O)Nc2ccc(C)cc2)o1 [KKL-1248] | 0% |
| CN(C)c1ccc(N=Nc2nc3ccccc3n2C)cc1 [KKL-1056] | 0% |
| COc1ccc(-c2nc(CN3CCC4(C=Cc5ccccc54)CC3)c(C)o2)c(OC)c1C [KKL-0487] | 0% |
| CC(Oc1ccccc1)C(=O)Nc1nc(-c2ccccn2)cs1 (stereo not drawn) [KKL-1690] | 15% |
| CC(C)(C)c1ccc(C(O)CN2CCC3(CC2)CC(O)c2cc(F)ccc2O3)cc1 (stereo not drawn) [KKL-0935] | 0% |
| COc1ccccc1N1CCN(Cc2nc(-c3ccc(C)cc3)no2)CC1 [KKL-1207] | 5% |
| COc1ccc(-c2nnc3sc(Cc4csc(C)n4)nn23)cc1 [KKL-1783] | 0% |
| COc1ccccc1OC(=O)c1sc2ccccc2c1Cl [KKL-0908] | 0% |
| Fc1cccc(Cl)c1C1c2[nH]c3ccccc3c2CCN1Cc1ncc[nH]1 (stereo not drawn) [KKL-0643] | 6% |
| O=C(Nc1ccc(Cl)cc1)NC1CC2CCC1C2 (stereo not drawn) [KKL-0577] | 0% |
| Cc1scc(C(=O)NCc2ccco2)c1-c1ccccc1 [KKL-0613] | 1% |
| O=C(COc1ccccc1)N1CCN(c2cnc3ccccc3n2)CC1 [KKL-1867] | 22% |
| CCOC(=O)CSc1nc(C#N)c(SCC(=O)OCC)s1 [KKL-0955] | 12% |
| COc1cc(C(F)(F)F)nc2ccc(C)c(N)c12 [KKL-1833] | 7% |
| COC(=O)[C@@H]1Cc2c([nH]c3ccccc23)[C@H]2C[C@H](NC3CC3)C[C@@H](c3ccc(C(F)(F)F)cc3)N21 [KKL-1600] | 0% |
| Cc1ccc2cc(CNc3ccc(-c4nc5cc(C)ccc5[nH]4)cc3)c(O)nc2c1 [KKL-0534] | 0% |
| CN(Cc1cccc(-n2cccn2)c1)C(=O)c1ccc2nc(C3CCCCC3)oc2c1 [KKL-0621] | 0% |
| Cc1c(Cc2ccccc2)c(NCCCO)n2c(nc3ccccc32)c1C#N [KKL-1593] | 0% |
| Cc1cnc(NC(=O)CSc2ccc(Cl)cc2)s1 [KKL-0784] | 0% |
| CCCOC(=O)CSc1nnc(-c2ccc(N(C)C)cc2)o1 [KKL-1217] | 9% |
